Results as given in the supplement of paper PMC12595434, “Development of retinoid nuclear receptor pathway antagonists through targeting aldehyde dehydrogenase 1A3” (iScience, 2025).
The other results are listed elsewhere or left out. This is a noisy data set.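 Many melting curves are irregular; where none melted, Tm was taken as 64 °C.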

Sequences of proteins named here, by UniProt entry; tags and fusion partners are left off. A change or cut given only in a name is not applied to a line headed by its entry.
UniProt P51530: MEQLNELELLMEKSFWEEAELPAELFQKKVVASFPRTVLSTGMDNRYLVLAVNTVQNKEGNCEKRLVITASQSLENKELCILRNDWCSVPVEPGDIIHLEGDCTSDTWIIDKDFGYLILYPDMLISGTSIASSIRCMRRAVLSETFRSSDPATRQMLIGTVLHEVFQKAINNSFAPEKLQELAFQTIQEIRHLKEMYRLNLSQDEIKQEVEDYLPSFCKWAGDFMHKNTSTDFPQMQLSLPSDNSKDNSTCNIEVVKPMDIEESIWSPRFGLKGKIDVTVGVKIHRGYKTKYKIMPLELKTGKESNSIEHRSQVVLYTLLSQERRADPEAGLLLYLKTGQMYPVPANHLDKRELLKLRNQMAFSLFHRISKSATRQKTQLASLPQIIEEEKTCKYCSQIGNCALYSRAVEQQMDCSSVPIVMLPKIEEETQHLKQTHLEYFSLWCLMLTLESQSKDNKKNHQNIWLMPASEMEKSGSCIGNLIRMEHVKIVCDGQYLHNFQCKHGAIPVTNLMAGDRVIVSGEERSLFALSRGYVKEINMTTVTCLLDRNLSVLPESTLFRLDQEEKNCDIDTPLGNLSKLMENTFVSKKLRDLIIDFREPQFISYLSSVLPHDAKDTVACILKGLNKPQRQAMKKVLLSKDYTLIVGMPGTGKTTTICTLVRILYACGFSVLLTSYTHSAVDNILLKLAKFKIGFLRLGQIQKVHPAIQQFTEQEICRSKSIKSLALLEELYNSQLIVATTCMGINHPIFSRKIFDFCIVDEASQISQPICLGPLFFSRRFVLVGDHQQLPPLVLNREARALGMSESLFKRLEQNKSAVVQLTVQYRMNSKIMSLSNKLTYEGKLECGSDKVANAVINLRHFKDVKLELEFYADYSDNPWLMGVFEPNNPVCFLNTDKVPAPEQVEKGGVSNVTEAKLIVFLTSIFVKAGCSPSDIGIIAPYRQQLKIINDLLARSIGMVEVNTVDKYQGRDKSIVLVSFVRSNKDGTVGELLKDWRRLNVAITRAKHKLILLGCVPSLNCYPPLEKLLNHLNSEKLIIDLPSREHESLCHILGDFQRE
UniProt P50748: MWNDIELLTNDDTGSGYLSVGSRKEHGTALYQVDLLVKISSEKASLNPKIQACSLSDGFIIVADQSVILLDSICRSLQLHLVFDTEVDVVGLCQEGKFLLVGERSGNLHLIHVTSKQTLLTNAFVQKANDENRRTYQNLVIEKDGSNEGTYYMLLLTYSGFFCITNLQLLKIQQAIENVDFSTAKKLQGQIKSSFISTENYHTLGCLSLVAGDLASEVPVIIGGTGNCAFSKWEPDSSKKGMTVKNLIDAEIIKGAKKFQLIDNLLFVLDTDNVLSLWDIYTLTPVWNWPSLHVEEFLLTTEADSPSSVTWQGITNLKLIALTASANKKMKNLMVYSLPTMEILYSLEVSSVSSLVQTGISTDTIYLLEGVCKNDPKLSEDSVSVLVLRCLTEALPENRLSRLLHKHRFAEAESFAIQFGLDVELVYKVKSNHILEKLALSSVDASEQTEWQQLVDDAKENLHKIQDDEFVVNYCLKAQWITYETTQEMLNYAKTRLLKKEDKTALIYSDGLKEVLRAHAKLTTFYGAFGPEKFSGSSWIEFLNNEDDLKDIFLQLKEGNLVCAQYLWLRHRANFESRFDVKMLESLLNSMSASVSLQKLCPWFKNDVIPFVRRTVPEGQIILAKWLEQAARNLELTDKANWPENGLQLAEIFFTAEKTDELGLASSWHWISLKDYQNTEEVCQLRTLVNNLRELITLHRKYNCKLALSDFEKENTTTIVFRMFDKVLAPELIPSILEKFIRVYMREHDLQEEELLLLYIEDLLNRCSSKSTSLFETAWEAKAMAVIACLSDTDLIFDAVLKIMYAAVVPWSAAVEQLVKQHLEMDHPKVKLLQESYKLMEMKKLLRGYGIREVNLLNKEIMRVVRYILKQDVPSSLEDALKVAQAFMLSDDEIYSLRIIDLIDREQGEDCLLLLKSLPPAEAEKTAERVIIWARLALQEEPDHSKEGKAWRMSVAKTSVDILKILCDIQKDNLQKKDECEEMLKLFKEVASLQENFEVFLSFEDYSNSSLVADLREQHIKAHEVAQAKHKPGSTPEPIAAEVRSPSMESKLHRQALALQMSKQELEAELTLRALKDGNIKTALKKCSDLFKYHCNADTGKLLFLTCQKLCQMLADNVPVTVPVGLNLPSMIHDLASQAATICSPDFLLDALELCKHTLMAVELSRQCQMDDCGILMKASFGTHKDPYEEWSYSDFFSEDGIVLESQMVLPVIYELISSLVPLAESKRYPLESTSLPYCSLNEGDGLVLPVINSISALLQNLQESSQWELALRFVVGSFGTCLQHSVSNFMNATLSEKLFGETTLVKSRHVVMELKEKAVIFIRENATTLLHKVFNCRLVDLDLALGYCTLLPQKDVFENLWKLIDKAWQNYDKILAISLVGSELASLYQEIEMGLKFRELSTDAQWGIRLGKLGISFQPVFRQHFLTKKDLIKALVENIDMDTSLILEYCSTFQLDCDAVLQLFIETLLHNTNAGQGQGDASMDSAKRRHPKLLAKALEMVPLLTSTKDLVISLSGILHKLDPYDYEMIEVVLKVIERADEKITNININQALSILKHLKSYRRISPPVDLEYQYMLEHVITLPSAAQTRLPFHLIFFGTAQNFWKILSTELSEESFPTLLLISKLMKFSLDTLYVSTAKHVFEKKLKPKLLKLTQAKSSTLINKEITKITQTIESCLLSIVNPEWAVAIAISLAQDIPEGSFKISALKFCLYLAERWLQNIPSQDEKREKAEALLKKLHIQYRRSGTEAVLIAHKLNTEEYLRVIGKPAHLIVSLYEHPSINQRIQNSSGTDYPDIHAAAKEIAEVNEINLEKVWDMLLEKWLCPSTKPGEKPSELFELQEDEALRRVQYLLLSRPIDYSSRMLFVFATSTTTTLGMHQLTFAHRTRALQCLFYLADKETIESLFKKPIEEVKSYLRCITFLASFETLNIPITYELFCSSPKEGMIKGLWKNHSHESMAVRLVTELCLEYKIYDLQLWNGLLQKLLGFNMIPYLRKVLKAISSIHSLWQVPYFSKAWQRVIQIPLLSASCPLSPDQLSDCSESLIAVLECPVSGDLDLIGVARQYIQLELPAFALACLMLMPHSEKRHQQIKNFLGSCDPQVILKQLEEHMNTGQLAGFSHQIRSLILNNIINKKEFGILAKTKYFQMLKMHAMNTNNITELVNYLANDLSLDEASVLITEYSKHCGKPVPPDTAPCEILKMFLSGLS
UniProt P49327, whole entry, looked up: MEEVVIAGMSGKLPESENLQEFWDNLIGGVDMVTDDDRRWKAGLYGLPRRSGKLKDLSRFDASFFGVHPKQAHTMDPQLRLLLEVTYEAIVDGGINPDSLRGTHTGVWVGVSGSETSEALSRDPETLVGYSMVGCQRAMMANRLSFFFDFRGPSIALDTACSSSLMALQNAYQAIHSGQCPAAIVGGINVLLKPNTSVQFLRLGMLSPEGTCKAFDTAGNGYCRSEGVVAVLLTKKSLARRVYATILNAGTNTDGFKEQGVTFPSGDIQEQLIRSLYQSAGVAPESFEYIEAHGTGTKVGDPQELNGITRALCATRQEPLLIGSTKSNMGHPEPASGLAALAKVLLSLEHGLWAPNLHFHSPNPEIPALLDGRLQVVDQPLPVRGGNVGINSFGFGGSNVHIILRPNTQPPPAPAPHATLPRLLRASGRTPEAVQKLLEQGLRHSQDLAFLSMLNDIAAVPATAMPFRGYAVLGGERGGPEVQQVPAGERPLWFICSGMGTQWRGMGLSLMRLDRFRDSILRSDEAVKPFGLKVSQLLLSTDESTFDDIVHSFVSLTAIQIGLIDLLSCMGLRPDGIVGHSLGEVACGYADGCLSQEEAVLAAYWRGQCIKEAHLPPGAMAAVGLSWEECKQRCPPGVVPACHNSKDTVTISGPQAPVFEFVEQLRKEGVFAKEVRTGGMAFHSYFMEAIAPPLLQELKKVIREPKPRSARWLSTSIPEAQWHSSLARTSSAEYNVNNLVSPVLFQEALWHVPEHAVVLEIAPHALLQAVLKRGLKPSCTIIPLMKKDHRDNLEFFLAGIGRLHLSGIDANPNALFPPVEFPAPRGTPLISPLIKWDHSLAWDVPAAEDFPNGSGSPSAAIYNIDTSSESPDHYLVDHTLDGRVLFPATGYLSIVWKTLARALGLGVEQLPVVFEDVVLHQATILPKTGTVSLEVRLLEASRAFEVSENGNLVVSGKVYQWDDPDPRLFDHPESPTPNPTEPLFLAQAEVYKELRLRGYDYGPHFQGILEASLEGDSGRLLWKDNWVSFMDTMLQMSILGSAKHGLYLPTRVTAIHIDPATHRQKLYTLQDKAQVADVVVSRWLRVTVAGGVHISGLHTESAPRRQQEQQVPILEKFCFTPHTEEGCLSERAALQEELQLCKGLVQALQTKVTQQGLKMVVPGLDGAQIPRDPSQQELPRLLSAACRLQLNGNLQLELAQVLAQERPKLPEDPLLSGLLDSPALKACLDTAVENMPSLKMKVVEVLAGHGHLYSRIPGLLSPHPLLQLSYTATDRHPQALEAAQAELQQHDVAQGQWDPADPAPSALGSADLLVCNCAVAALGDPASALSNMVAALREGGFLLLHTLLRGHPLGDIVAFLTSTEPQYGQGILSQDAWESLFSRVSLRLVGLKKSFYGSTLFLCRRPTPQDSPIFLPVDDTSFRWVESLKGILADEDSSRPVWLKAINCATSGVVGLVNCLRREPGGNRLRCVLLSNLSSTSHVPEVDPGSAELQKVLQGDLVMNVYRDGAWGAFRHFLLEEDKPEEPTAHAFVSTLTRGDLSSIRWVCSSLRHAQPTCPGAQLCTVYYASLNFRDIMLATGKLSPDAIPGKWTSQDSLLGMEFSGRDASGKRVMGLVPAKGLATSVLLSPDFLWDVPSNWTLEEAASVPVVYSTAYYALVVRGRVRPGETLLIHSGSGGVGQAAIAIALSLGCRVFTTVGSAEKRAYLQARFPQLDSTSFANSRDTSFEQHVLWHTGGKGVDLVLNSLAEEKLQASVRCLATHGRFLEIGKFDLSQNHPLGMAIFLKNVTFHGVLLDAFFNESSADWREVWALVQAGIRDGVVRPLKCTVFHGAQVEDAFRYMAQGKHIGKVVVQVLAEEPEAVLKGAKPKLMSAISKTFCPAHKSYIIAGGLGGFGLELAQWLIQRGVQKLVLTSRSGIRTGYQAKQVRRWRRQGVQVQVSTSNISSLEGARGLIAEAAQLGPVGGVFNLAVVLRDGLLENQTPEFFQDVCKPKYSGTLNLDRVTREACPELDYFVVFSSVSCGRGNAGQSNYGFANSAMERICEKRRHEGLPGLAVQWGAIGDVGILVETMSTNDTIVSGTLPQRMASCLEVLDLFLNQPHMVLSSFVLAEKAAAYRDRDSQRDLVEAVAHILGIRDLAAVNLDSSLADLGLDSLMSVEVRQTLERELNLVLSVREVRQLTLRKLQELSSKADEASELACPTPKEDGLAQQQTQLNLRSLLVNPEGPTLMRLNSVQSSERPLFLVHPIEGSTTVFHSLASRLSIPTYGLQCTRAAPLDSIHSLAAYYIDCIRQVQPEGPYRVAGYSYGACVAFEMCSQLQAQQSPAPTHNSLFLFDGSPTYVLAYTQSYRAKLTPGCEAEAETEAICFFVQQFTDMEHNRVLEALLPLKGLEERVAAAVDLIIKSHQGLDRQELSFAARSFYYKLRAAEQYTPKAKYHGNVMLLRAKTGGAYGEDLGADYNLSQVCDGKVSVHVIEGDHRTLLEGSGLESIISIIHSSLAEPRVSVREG
UniProt P49321, whole entry: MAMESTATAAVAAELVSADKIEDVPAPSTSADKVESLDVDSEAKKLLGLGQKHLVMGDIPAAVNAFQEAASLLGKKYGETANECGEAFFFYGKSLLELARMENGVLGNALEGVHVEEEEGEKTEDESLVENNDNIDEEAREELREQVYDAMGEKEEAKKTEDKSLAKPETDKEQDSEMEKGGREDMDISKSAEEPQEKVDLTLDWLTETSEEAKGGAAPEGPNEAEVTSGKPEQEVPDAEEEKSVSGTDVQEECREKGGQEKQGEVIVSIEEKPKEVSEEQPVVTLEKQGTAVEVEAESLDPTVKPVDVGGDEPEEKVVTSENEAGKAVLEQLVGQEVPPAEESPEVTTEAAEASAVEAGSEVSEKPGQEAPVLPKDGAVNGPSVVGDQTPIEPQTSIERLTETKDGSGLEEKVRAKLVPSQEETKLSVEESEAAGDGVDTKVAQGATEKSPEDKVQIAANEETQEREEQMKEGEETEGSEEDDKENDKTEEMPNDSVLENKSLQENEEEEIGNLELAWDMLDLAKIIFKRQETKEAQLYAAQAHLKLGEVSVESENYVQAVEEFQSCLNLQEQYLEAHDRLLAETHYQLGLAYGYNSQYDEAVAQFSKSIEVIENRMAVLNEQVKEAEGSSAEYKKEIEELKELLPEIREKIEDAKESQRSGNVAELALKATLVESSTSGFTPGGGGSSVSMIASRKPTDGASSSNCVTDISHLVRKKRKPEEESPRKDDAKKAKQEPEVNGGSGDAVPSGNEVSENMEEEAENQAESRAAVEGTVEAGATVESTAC

Compound: CCc1cnccc1C(=O)Nc1cc2c(cc1F)NC(=O)CC2
Test: melting temperature shift (DMSO Tm minus MBE1-treated Tm) in cellular thermal proteome profiling; higher = less thermal stabilization by MBE1 (negative = stabilized by MBE1)
Settings: A375

| Target | melting temperature shift (MBE1 concentration: 100 nM) | melting temperature shift (MBE1 concentration: 1 uM) |
| --- | --- | --- |
| RECQL (UniProt P46063) | -0.77 °C | -0.309 °C |
| MRPL19 (UniProt P49406) | 1.84 °C | 1.1 °C |
| SUOX (UniProt P51687) | -1.18 °C | -0.557 °C |
| MDH1 (UniProt P40925) | -0.464 °C | -0.659 °C |
| CBX5 (UniProt P45973) | 0.995 °C | -0.672 °C |
| UniProt P49753 | 2.03 °C | 0.885 °C |
| ATRX (UniProt P46100) | -0.0705 °C | 0.147 °C |
| CDC34 (UniProt P49427) | -0.872 °C | -1.02 °C |
| GCLM (UniProt P48507) | -0.696 °C | -0.35 °C |
| MTOR (UniProt P42345) | 0.574 °C | 0.128 °C |
| NOP2 (UniProt P46087) | -0.436 °C | -0.0335 °C |
| PPM1F (UniProt P49593) | 1.15 °C | 0.84 °C |
| STAT5B (UniProt P51692) | -0.53 °C | -0.626 °C |
| CARS (UniProt P49589) | -0.443 °C | 0.469 °C |
| UniProt P51587 | -0.916 °C | 0.513 °C |
| CETN2 (UniProt P41208) | -10.3 °C | -5.27 °C |
| PRIM1 (UniProt P49642) | -1.15 °C | 0.0894 °C |
| HSPA9 (UniProt P38646) | -1.02 °C | -0.11 °C |
| ALDH5A1 (UniProt P51649) | -1.01 °C | 0.0916 °C |
| DNA2 (UniProt P51530) | -2.06 °C | 0.133 °C |
| CRKL (UniProt P46109) | 0.904 °C | -0.452 °C |
| UniProt P50443 | -0.948 °C | -0.959 °C |
| PIP4K2A (UniProt P48426) | 0.727 °C | -0.965 °C |
| FXR2 (UniProt P51116) | -0.828 °C | -0.231 °C |
| CCT8 (UniProt P50990) | -1.32 °C | -1.8 °C |
| UniProt P49116 | 0.867 °C | -0.0794 °C |

For convenience, part of the list above.

| Target | melting temperature shift (MBE1 concentration: 100 nM) | melting temperature shift (MBE1 concentration: 1 uM) |
| --- | --- | --- |
| CARS (UniProt P49589) | -0.443 °C | 0.469 °C |
| UniProt P51587 | -0.916 °C | 0.513 °C |

Following part

| Target | melting temperature shift (MBE1 concentration: 100 nM) | melting temperature shift (MBE1 concentration: 1 uM) |
| --- | --- | --- |
| HARS2 (UniProt P49590) | -0.262 °C | 0.765 °C |
| CAPG (UniProt P40121) | 0.427 °C | -0.488 °C |
| FDFT1 (UniProt P37268) | -0.055 °C | 0.47 °C |
| FNTA (UniProt P49354) | -0.396 °C | -0.159 °C |
| ABL2 (UniProt P42684) | -1.08 °C | -0.781 °C |
| LSS (UniProt P48449) | -0.449 °C | -0.101 °C |
| RPL34 (UniProt P49207) | -0.443 °C | -0.806 °C |
| CDK9 (UniProt P50750) | 1.4 °C | 0.0977 °C |
| UniProt P41743 | 0.537 °C | 0.464 °C |
| RPS19 (UniProt P39019) | -0.592 °C | 0.238 °C |
| CLCN6 (UniProt P51797) | -1.57 °C | -1.01 °C |
| RPL21 (UniProt P46778) | -0.598 °C | 0.153 °C |
| EIF2D (UniProt P41214) | -0.941 °C | -0.122 °C |
| CCT5 (UniProt P48643) | -0.91 °C | 0.563 °C |
| GMPS (UniProt P49915) | 0.403 °C | 0.611 °C |
| STT3A (UniProt P46977) | -0.423 °C | 0.194 °C |
| RPL28 (UniProt P46779) | -0.0611 °C | 0.159 °C |
| MATR3 (UniProt P43243) | -0.0448 °C | -0.34 °C |
| UniProt P50548 | 0.983 °C | -0.446 °C |
| ALDH3A2 (UniProt P51648) | 0.891 °C | 0.58 °C |
| ACADSB (UniProt P45954) | -0.698 °C | 0.636 °C |
| SKIV2L2 (UniProt P42285) | 0.488 °C | -0.0427 °C |
| ECE1 (UniProt P42892) | -2.18 °C | 0.452 °C |
| PITPNB (UniProt P48739) | -0.134 °C | -0.302 °C |
| CAPZB (UniProt P47756) | -0.47 °C | -1.19 °C |
| GNAQ (UniProt P50148) | -1.11 °C | -0.0183 °C |

| Target | melting temperature shift (MBE1 concentration: 100 nM) | melting temperature shift (MBE1 concentration: 1 uM) |
| --- | --- | --- |
| NNMT (UniProt P40261) | 0.309 °C | 0.154 °C |
| SARS (UniProt P49591) | -0.704 °C | 0.376 °C |
| UniProt P49750 | -0.519 °C | -0.436 °C |
| ALDH9A1 (UniProt P49189) | -1.29 °C | -1.47 °C |
| CASP4 (UniProt P49662) | 0.556 °C | -0.159 °C |
| PLA2G4A (UniProt P47712) | 0.25 °C | -0.208 °C |
| CLCN7 (UniProt P51798) | -0.382 °C | -0.212 °C |
| PRCP (UniProt P42785) | -2.91 °C | 0.549 °C |
| TAF6 (UniProt P49848) | -0.996 °C | -0.623 °C |
| LRBA (UniProt P50851) | -0.248 °C | 0.379 °C |
| UniProt P42773 | -0.93 °C | -3.01 °C |
| ACADVL (UniProt P49748) | -1.23 °C | -0.702 °C |
| CPT1A (UniProt P50416) | 0.208 °C | -0.134 °C |
| UniProt P51161 | -2.07 °C | -0.818 °C |
| IRAK1 (UniProt P51617) | -1.26 °C | -0.278 °C |
| ARRB1 (UniProt P49407) | -0.0469 °C | 0.215 °C |
| ARCN1 (UniProt P48444) | -0.999 °C | -0.144 °C |
| PIK3CA (UniProt P42336) | -0.95 °C | -0.39 °C |
| STAT5A (UniProt P42229) | 0.701 °C | 0.555 °C |
| UniProt P48681 | -1.68 °C | -2.46 °C |
| PAFAH1B1 (UniProt P43034) | -0.953 °C | 0.0488 °C |
| MTHFS (UniProt P49914) | 0.403 °C | -0.0977 °C |
| UniProt P50895 | -3.62 °C | -0.58 °C |
| PCYT1A (UniProt P49585) | -0.952 °C | -0.372 °C |
| ATP6V1A (UniProt P38606) | 0.482 °C | 0.8 °C |
| CENPF (UniProt P49454) | -1.86 °C | -2.61 °C |

| Target | melting temperature shift (MBE1 concentration: 100 nM) | melting temperature shift (MBE1 concentration: 1 uM) |
| --- | --- | --- |
| UniProt P49840 | -0.337 °C | 0.403 °C |
| EIF1AX (UniProt P47813) | -0.501 °C | 0.22 °C |
| SRP9 (UniProt P49458) | -0.771 °C | -0.126 °C |
| RBMX (UniProt P38159) | -1.54 °C | -2.27 °C |
| EIF2S3 (UniProt P41091) | -0.997 °C | 0.0604 °C |
| ACTR1B (UniProt P42025) | -1.44 °C | 0.661 °C |
| GYG1 (UniProt P46976) | -1.53 °C | 0.806 °C |
| UniProt P51688 | -4 °C | 1.32 °C |
| ARL1 (UniProt P40616) | -0.508 °C | 0.959 °C |
| STAT6 (UniProt P42226) | -0.748 °C | -0.339 °C |
| GGCX (UniProt P38435) | 1.79 °C | 0.486 °C |
| LIG3 (UniProt P49916) | -0.0769 °C | -0.397 °C |
| SSR4 (UniProt P51571) | -2.25 °C | -1.3 °C |
| IQGAP1 (UniProt P46940) | 0.629 °C | 0.421 °C |
| FXR1 (UniProt P51114) | -0.62 °C | -0.212 °C |
| KNTC1 (UniProt P50748) | -0.127 °C | -0.136 °C |
| PPOX (UniProt P50336) | 0.403 °C | 1.03 °C |
| RAB9A (UniProt P51151) | -1.99 °C | 0.812 °C |
| UniProt P37275 | -1.03 °C | 0.0305 °C |
| FASN (UniProt P49327) | -0.214 °C | 0.446 °C |
| ME1 (UniProt P48163) | -1.8 °C | -1.97 °C |
| NASP (UniProt P49321) | -0.281 °C | -0.159 °C |
| UniProt P43363 | -0.305 °C | -0.318 °C |
| DNM2 (UniProt P50570) | 0.415 °C | -0.0244 °C |
| CAPZA2 (UniProt P47755) | -0.977 °C | 0.69 °C |
